Experimental data as given in patent US8623442B2, “Palatable beverages and compositions with cocoa extract” (Mars, Incorporated., priority 2010, dated 2014).

Experiment: Palatability testing with sweeteners, sensory evaluation by expert tasters
Settings: sweetener 40 mg/240 ml water in Example 1 type mix; expert tasters n=2

## thaumatin [taumatin]
  astringency / bitterness (sensory evaluation): reduced astringency
  sweetness (sensory evaluation): failed to impart sweetness
